Test results reported in paper PMC12251226, “Comparison of in silico predictions of action potential duration in response to inhibition of IKr and ICaL with new human ex vivo recordings” (PLOS Computational Biology, 2025).

By UniProt entry, the sequences of proteins in these tests, tags left out. Where a name states a change or a piece, a line headed by the entry shows the natural chain unless it says otherwise.
UniProt Q12809: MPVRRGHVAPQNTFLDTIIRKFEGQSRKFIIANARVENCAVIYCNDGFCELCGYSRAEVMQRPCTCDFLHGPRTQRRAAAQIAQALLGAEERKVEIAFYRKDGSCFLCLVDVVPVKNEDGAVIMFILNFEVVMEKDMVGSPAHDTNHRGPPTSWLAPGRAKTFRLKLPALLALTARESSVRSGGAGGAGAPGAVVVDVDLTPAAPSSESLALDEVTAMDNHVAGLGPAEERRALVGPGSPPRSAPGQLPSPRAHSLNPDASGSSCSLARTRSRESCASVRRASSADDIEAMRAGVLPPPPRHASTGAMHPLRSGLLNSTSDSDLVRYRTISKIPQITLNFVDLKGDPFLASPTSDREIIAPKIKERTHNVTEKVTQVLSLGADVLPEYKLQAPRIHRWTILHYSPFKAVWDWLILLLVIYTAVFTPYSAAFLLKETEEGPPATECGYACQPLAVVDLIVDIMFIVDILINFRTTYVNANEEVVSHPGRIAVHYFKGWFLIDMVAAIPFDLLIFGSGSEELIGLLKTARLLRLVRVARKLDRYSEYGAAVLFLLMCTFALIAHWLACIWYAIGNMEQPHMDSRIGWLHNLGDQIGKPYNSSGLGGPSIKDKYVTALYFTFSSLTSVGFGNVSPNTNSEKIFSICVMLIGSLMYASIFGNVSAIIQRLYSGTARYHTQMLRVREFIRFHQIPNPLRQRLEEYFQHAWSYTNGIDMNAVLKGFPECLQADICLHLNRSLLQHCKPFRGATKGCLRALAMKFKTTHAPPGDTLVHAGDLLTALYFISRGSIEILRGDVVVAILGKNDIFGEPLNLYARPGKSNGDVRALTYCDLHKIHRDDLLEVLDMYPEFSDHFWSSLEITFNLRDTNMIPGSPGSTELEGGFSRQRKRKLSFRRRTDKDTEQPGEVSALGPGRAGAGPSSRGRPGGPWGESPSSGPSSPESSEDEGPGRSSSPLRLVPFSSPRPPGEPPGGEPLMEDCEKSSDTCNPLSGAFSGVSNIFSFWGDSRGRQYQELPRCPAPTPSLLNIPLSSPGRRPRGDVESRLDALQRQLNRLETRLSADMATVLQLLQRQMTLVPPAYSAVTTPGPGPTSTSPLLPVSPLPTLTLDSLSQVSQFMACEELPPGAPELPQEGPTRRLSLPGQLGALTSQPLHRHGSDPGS

Molecular target: hERG channels (Homo sapiens, UniProt Q12809)

COC(=O)C1=C(C)NC(C)=C(C(=O)OC)C1c1ccccc1[N+](=O)[O-] [Nifedipine]
IKr CiPA IC50: inactive
